# In PubChem BioAssay (NCATS):
# The inconclusive results got no clear call from the source; some entries with a clear call stand among them for comparison. For some of these results: Potencies of inconclusive entries are doubtful fits and often do not repeat. Active and inactive are the calls of the source. The call rests on the fitted dose curve; in most records, active means well fitted curve in the direction sought with a large enough effect; inconclusive means small, poorly fitted or top-dose-only effect, or another doubt; inactive means no such curve, though single readings can be large; an effect the other way counts as inactive or inconclusive.
# Tests used:
# [1] = Quantitative High-Throughput drug screen in 47 multiple myeloma cell lines against the NCATS MIPE library collection: Karpas417_ECACC cell viability assay (AID 1918961); details: Karpas417 myeloma viability, CellTiter-Glo ATP luminescence, 48 h; viability (% of DMSO): at 45.8 µM (top of the series)
# How it was run: (§1)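 We plated 500 myeloma cells per well, pinned in MIPE 4.0 compounds, and incubated for 48 hours at 37C. ATP was then quantified with CellTiter-Glo, with DMSO and media-only wells defining 100% and 0%.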
# [2] = Quantitative High-Throughput drug screen in 47 multiple myeloma cell lines against the NCATS MIPE library collection: KHM11_PLB cell viability assay (AID 1918962); details: KHM11 myeloma cell viability, CellTiter-Glo ATP luminescence, 48 h; series mostly up to 45.8 µM; further: nearly all actives have a fitted effect of over 35% in size
# How it was run: (§2)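 Primary qHTS used for cherry-picking: cells at 500/well, library compounds for 48 h (37C, 5% CO2), luminescent ATP assay.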
# [3] = Quantitative High-Throughput drug screen in 47 multiple myeloma cell lines against the NCATS MIPE library collection: JIM1_ECACC cell viability assay (AID 1918964); details: JIM1 myeloma viability, CellTiter-Glo ATP luminescence, 48 h; viability (% of DMSO): at 45.8 µM (top of the series)
# How it was run: (§3)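 Inhibition of cell viability is measured here. Each line was plated at 500 cells per well, treated with MIPE 4.0 drugs, kept 48 hours at 37C, then assayed for ATP content by CellTiter-Glo luminescence.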
# [4] = Quantitative High-Throughput drug screen in 47 multiple myeloma cell lines against the NCATS MIPE library collection: JJN3_DSMZ cell viability assay (AID 1918966; further: nearly all actives have a fitted effect of over 50% in size)
# How it was run: as §3
# [5] = Quantitative High-Throughput drug screen in 47 multiple myeloma cell lines against the NCATS MIPE library collection: KMS27_JCRB cell viability assay (AID 1918970); details: KMS27 myeloma cells, CellTiter-Glo ATP viability, 48 h; viability (% of DMSO): at 45.8 µM (top of the series); further: nearly all actives have a fitted effect of over 30% in size
# How it was run: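 Each line is seeded at 500 cells per well and treated with library compounds for 48 hours under 37 °C, 5% CO2. CellTiter-Glo is then added for 5 min at room temperature before median relative luminescence is recorded.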
# [6] = Quantitative High-Throughput drug screen in 47 multiple myeloma cell lines against the NCATS MIPE library collection: KMS12PE_JCRB cell viability assay (AID 1918972); details: KMS12PE myeloma viability, CellTiter-Glo ATP, 48 h; viability: at 45.8 µM (top of the series); further: nearly all actives have a fitted effect of over 30% in size
# How it was run: as §1
# [7] = Quantitative High-Throughput drug screen in 47 multiple myeloma cell lines against the NCATS MIPE library collection: KMS21BM_JCRB cell viability assay (AID 1918974); details: ATP luminescence, 48 h; viability: at 45.8 µM (top of the series)
# How it was run: as §3
# [8] = Quantitative High-Throughput drug screen in 47 multiple myeloma cell lines against the NCATS MIPE library collection: KMS26_JCRB cell viability assay (AID 1918975); details: KMS26 myeloma cells viability, CellTiter-Glo ATP, 48 h; viability (% of DMSO): at 45.8 µM (top of the series); further: nearly all actives have a fitted effect of over 45% in size
# How it was run: (§4)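 Relative luminescence from CellTiter-Glo served as the viability signal, referenced to DMSO-treated (100%) and cell-free medium (0%) controls. Treatment lasted 48 hours at 37C with 500 cells per well.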
# [9] = Quantitative High-Throughput drug screen in 47 multiple myeloma cell lines against the NCATS MIPE library collection: MMM1_PLB cell viability assay (AID 1918976); further: nearly all actives have a fitted effect of over 35% in size
# How it was run: (§5)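 Plated at 500 cells per well, myeloma lines received MIPE 4.0 compounds by pin tool. Following 48 h culture at 37 °C, CellTiter-Glo luminescence gave viability relative to DMSO and media-only controls.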
# [10] = Quantitative High-Throughput drug screen in 47 multiple myeloma cell lines against the NCATS MIPE library collection: MOLP8_DSMZ cell viability assay (AID 1918977); further: nearly all actives have a fitted effect of over 45% in size
# How it was run: as §5
# [11] = Quantitative High-Throughput drug screen in 47 multiple myeloma cell lines against the NCATS MIPE library collection: OCIMY1_PLB cell viability assay (AID 1918979); further: nearly all actives have a fitted effect of over 35% in size
# How it was run: as §5
# [12] = Quantitative High-Throughput drug screen in 47 multiple myeloma cell lines against the NCATS MIPE library collection: JIM3_ECACC cell viability assay (AID 1918963; further: nearly all actives have a fitted effect of over 35% in size); details: JIM3 myeloma viability, CellTiter-Glo ATP, 48 h; series mostly up to 45.8 µM
# How it was run: as §2
# [13] = Quantitative High-Throughput drug screen in 47 multiple myeloma cell lines against the NCATS MIPE library collection: INA6_PLB cell viability assay (AID 1918965; further: nearly all actives have a fitted effect of over 55% in size); details: INA6 myeloma viability, CellTiter-Glo ATP luminescence, 48 h; series mostly up to 45.8 µM
# How it was run: as §1
# [14] = Quantitative High-Throughput drug screen in 47 multiple myeloma cell lines against the NCATS MIPE library collection: H1112_PLB cell viability assay (AID 1918967; further: nearly all actives have a fitted effect of over 30% in size)
# How it was run: as §3
# [15] = Quantitative High-Throughput drug screen in 47 multiple myeloma cell lines against the NCATS MIPE library collection: KMS12BM_JCRB cell viability assay (AID 1918971); further: nearly all actives have a fitted effect of over 35% in size
# How it was run: as §4
# [16] = Quantitative High-Throughput drug screen in 47 multiple myeloma cell lines against the NCATS MIPE library collection: KMS20_JCRB cell viability assay (AID 1918973); details: CellTiter-Glo ATP, 48 h; viability (% of DMSO): at 45.8 µM (top of the series); further: nearly all actives have a fitted effect of over 45% in size
# How it was run: as §3
# [17] = Quantitative High-Throughput drug screen in 47 multiple myeloma cell lines against the NCATS MIPE library collection: MM1R_ATCC cell viability assay (AID 1918981); further: nearly all actives have a fitted effect of over 35% in size
# How it was run: as §5
# [18] = Quantitative High-Throughput drug screen in 47 multiple myeloma cell lines against the NCATS MIPE library collection: NCIH929_DSMZ cell viability assay (AID 1918978); details: NCI-H929 myeloma viability, CellTiter-Glo ATP, 48 h; series mostly up to 45.8 µM; further: nearly all actives have a fitted effect of over 35% in size
# How it was run: as §5
# [19] = Quantitative High-Throughput drug screen in 47 multiple myeloma cell lines against the NCATS MIPE library collection: Karpas25_ECACC cell viability assay (AID 1918968; further: nearly all actives have a fitted effect of over 35% in size)
# How it was run: as §3
# [20] = Quantitative High-Throughput drug screen in 47 multiple myeloma cell lines against the NCATS MIPE library collection: MM1S_ATCC cell viability assay (AID 1918980); further: nearly all actives have a fitted effect of over 45% in size
# How it was run: as §5
# Potency means the concentration at half of the fitted maximal effect.
Compound,Potency [1],Potency [2],Potency [3],Potency [4],Potency [5],Potency [6],Potency [7],Potency [8],Potency [9],Potency [10],Potency [11],Potency [12],Potency [13],Potency [14],Potency [15],Potency [16],Potency [17],Potency [18],Potency [19],Potency [20]
Fc1ccc(C(OCCN2CCN(CCCc3ccccc3)CC2)c2ccc(F)cc2)cc1,"inconclusive: 0.0118 µM [cytotoxic, full curve, poor fit]",active: 13.2 µM,inactive,active: 23.5 µM,"inconclusive: 18.7 µM [rising, partial curve, poor fit]","inconclusive: 0.0037 µM [rising, full curve, poor fit]","inconclusive: 0.935 µM [rising, full curve, poor fit]",active: 16.6 µM,active: 14.8 µM,"inconclusive: 16.6 µM [cytotoxic, partial curve, poor fit]",active: 26.4 µM,–,–,–,–,–,–,–,–,–
COC1=C[C@@H]2[C@@H]3Cc4ccc(OC)c(O)c4[C@]2(CCN3C)CC1=O,active: 10.5 µM,–,"inconclusive: 18.7 µM [cytotoxic, partial curve, poor fit]","inconclusive: 33.2 µM [cytotoxic, single point]","inconclusive: 18.7 µM [cytotoxic, partial curve, poor fit]","inconclusive: 26.4 µM [cytotoxic, single point]","inconclusive: 46.9 µM [cytotoxic, partial curve, poor fit]","inconclusive: 52.6 µM [cytotoxic, partial curve, poor fit]","inconclusive: 0.0033 µM [rising, full curve, poor fit]",inactive,"inconclusive: 33.2 µM [cytotoxic, single point]",active: 9.35 µM,active: 8.33 µM,"inconclusive: 1.18 µM [cytotoxic, full curve]","inconclusive: 0.0013 µM [rising, full curve]",active: 1.66 µM,"inconclusive: 33.2 µM [cytotoxic, single point]",–,–,–
O=c1cccc2n1CC1CNC[C@H]2C1,"inconclusive: 2.96 µM [cytotoxic, partial curve, poor fit]",inactive,"inconclusive: 18.7 µM [cytotoxic, partial curve, poor fit]",inactive,"inconclusive: 9.35 µM [cytotoxic, full curve]",–,"inconclusive: 3.32 µM [cytotoxic, full curve, poor fit]",inactive,"inconclusive: 0.0047 µM [rising, full curve, poor fit]",inactive,inactive,–,–,"inconclusive: 33.2 µM [cytotoxic, single point]",inactive,active: 11.8 µM,–,"inconclusive: 18.7 µM [cytotoxic, partial curve]",–,–
CC(O)=C(C#N)C(=O)Nc1cc(Br)ccc1Br,"inconclusive: 37.2 µM [rising, single point]",–,"inconclusive: 2.96 µM [cytotoxic, partial curve, poor fit]","inconclusive: 6.62 µM [cytotoxic, partial curve, poor fit]","inconclusive: 4.18 µM [cytotoxic, partial curve, poor fit]",–,"inconclusive: 37.2 µM [rising, partial curve]",–,–,"inconclusive: 0.935 µM [cytotoxic, full curve]",inactive,inactive,"inconclusive: 2.64 µM [cytotoxic, full curve, poor fit]",–,–,–,–,inactive,"inconclusive: 20.9 µM [cytotoxic, partial curve, poor fit]",active: 20.9 µM
C[C@]12Cc3cn[nH]c3C[C@@H]1CC[C@@H]1[C@H]2CC[C@@]2(C)[C@H]1CC[C@]2(C)O,"inconclusive: 0.296 µM [cytotoxic, full curve, poor fit]",–,inactive,–,"inconclusive: 0.469 µM [cytotoxic, full curve, poor fit]",inactive,"inconclusive: 5.9 µM [cytotoxic, partial curve, poor fit]","inconclusive: 8.33 µM [cytotoxic, partial curve, poor fit]",–,"inconclusive: 26.4 µM [cytotoxic, single point]",inactive,"inconclusive: 0.0264 µM [cytotoxic, full curve, poor fit]",inactive,–,–,inactive,"inconclusive: 0.662 µM [cytotoxic, full curve, poor fit]",–,inactive,inactive
